Test results taken from PMC8410846.

Experiments:
[1] = target: T1, 3-ketoacyl-CoA thiolase (3-KAT), Myc-tagged (UniProt P13437); assay: co-IP; Myc-tagged ACADL, 3-KAT or ATP5A immunoprecipitated with anti-Myc-Tag antibody (5 µg, overnight, 4 °C) from cardiomyocytes in 20 mM Tris pH 7.5, 150 mM NaCl, 1 mM EDTA, 1% Triton X-100, protein A/G agarose; blots for Epac1 and CaMKII; cells stimulated or not with 8-CPT-AM (10 µM, 30 min), preincubated or not with CE3F4 (20 µM) or KN-93 (5 µM); IgG as control for IP
T1 sequence: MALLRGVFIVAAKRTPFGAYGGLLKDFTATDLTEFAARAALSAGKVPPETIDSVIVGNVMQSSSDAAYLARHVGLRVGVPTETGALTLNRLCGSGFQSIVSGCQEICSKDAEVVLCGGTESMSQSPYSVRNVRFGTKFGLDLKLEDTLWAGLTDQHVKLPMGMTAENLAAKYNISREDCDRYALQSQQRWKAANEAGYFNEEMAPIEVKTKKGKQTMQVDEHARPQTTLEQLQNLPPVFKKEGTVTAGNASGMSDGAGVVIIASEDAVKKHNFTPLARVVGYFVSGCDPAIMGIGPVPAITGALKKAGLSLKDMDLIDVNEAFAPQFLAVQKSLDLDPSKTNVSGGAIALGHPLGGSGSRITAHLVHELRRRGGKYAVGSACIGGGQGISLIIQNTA

[2] = target: T2, long-chain fatty acid acyl-CoA dehydrogenase (ACADL), wild type, Myc-tagged (UniProt P15650); assay: as above
T2 sequence: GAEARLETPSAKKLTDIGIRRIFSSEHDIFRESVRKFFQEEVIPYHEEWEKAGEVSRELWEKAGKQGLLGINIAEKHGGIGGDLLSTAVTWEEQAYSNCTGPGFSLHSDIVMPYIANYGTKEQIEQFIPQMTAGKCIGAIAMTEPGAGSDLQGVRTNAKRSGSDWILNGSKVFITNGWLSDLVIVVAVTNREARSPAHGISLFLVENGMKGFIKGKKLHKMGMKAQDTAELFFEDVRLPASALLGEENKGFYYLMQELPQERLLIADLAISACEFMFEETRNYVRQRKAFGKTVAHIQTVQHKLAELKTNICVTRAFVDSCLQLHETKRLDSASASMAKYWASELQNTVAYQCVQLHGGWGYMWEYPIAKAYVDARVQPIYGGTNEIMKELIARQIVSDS

Ca2+/calmodulin-dependent protein kinase II (CaMKII) (enzyme)
binding [1]: binds | binding [2]: binds

These are yes or no findings as the source states them, for the method shown. Binding seen in cells or lysates may run through a third protein. A result given as binding can be weak or reduced; the word gives no strength. Tags and fused reporters may be left off the sequences shown.
